Test [1] deals with GATA4 (human (endogenous in Eso26)) (UniProt P43694). The test is described as follows: co-IP.
Test [2] addresses GATA6 (human (endogenous in Eso26)) (UniProt Q92908). Kind of test: co-IP.

By UniProt entry, the sequences of proteins in these tests, tags left out.
UniProt P43694: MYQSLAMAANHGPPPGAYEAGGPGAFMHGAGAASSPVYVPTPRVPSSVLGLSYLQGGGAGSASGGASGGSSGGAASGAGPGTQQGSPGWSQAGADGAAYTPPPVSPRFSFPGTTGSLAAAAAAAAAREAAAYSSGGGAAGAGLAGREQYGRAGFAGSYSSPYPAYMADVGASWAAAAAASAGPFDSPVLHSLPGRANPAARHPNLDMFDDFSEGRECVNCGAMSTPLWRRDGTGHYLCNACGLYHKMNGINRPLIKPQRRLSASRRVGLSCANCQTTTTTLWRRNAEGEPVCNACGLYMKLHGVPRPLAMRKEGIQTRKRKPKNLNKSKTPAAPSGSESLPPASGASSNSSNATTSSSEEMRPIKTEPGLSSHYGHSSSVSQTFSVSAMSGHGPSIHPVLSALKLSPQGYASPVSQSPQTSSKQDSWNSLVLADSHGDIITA
UniProt Q92908: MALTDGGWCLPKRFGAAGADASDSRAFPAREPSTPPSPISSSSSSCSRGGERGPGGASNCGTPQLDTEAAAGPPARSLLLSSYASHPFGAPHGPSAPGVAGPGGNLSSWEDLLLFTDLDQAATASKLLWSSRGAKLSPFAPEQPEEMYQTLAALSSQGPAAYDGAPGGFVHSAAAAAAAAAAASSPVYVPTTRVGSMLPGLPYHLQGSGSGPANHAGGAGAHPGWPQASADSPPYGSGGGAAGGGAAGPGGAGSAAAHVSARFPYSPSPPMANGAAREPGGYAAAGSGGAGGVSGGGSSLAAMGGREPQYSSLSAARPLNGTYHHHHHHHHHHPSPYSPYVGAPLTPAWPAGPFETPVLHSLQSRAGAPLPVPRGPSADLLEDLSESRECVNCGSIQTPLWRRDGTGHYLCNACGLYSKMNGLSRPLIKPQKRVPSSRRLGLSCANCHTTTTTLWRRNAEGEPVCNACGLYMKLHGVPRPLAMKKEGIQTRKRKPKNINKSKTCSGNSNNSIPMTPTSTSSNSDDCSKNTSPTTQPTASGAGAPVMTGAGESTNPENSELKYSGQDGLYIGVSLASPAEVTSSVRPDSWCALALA
UniProt Q13887: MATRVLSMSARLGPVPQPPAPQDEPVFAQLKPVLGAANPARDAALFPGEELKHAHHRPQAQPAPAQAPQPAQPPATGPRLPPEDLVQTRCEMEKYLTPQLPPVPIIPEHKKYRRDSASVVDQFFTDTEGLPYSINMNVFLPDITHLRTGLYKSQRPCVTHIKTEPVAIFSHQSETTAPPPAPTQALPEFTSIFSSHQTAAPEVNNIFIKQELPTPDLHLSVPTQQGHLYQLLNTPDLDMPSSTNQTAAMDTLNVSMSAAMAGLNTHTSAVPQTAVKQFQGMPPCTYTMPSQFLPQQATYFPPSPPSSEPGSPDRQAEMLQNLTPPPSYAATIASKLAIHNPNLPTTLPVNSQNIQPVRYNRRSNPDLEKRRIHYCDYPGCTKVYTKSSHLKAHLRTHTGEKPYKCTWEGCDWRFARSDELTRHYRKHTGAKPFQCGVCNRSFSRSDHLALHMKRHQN

These are yes or no findings as the source states them, for the method shown. In cells and extracts the contact can be indirect. Some binding calls cover weakened binding; strength is not graded here.

Regarding GATA6 (from UniProt Q92908 1-595), the binding entry in test [1] was “binds”.

On to KLF5 (from UniProt Q13887 1-457), for which the binding result in test [1] and in test [2] was “binds” in each case.

These data come from doi:10.1101/812149.
